Source: the supplement of paper PMC6078165

Tested on: HCC1143
Test: relative JC-1 red fluorescence (viability) vs pre-drug, coculture with fibroblast (fraction); higher = more viable cancer cells
Description: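 JC-1 labelled TNBC cells cocultured 1:1 (1,500 cells each) with CellTrace Violet stained primary or stromal fibroblasts in 384-well plates in FluoroBrite medium, treated with one of 42 anticancer drugs at 0.1, 1, 10 or 100 uM. JC-1 red fluorescence (mitochondrial integrity in cancer cells only) was read by plate reader every 8 h for 72 h. Values are normalised to each well's pre-drug value. The stock of one drug was tenfold lower, so its dose labels may be too high.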

O=C(O)CCCc1ccc(N(CCCl)CCCl)cc1 [Chlorambucil]
relative JC-1 red fluorescence
Settings | 8 h | 16 h | 24 h | 32 h | 40 h | 48 h | 56 h | 64 h | 72 h
0.1 µM, coculture fibroblast: C12385 | 0.841 | 0.809 | 0.767 | 0.714 | 0.661 | 0.638 | 0.62 | 0.591 | 0.584
0.1 µM, coculture fibroblast: H6013 | 0.781 | 0.734 | 0.702 | 0.692 | 0.638 | 0.63 | 0.595 | 0.585 | 0.542
0.1 µM, coculture fibroblast: H6019 | 0.809 | 0.73 | 0.6795 | 0.604 | 0.56 | 0.553 | 0.497 | 0.4599 | 0.425
0.1 µM, coculture fibroblast: H6076 | 0.809 | 0.779 | 0.737 | 0.699 | 0.651 | 0.637 | 0.616 | 0.594 | 0.602
0.1 µM, coculture fibroblast: H6231 | 0.8115 | 0.801 | 0.733 | 0.672 | 0.632 | 0.604 | 0.572 | 0.543 | 0.534
0.1 µM, coculture fibroblast: HADF | 0.73 | 0.681 | 0.659 | 0.683 | 0.604 | 0.595 | 0.581 | 0.568 | 0.552
0.1 µM, coculture fibroblast: HCFa | 0.807 | 0.748 | 0.713 | 0.705 | 0.637 | 0.619 | 0.576 | 0.548 | 0.523
0.1 µM, coculture fibroblast: HCPF | 0.823 | 0.849 | 0.812 | 0.738 | 0.738 | 0.715 | 0.681 | 0.652 | 0.648
0.1 µM, coculture fibroblast: HHSteC | 0.8548 | 0.809 | 0.776 | 0.7431 | 0.6842 | 0.669 | 0.6348 | 0.612 | 0.5639
0.1 µM, coculture fibroblast: HMF | 0.7772 | 0.811 | 0.733 | 0.636 | 0.634 | 0.601 | 0.566 | 0.53 | 0.504
0.1 µM, coculture fibroblast: HPFa | 0.87 | 0.788 | 0.759 | 0.657 | 0.608 | 0.589 | 0.536 | 0.494 | 0.464
0.1 µM, coculture fibroblast: HUF | 0.838 | 0.743 | 0.678 | 0.598 | 0.551 | 0.533 | 0.486 | 0.461 | 0.437
0.1 µM, coculture fibroblast: Hs5 | 0.8436 | 0.862 | 0.829 | 0.813 | 0.758 | 0.736 | 0.708 | 0.677 | 0.664
0.1 µM, coculture fibroblast: Hs27A | 0.756 | 0.737 | 0.716 | 0.732 | 0.64 | 0.649 | 0.614 | 0.597 | 0.55
0.1 µM, coculture fibroblast: Hs343T | 0.798 | 0.781 | 0.736 | 0.693 | 0.638 | 0.615 | 0.575 | 0.557 | 0.539
0.1 µM, coculture fibroblast: WS1 | 0.8147 | 0.751 | 0.71 | 0.643 | 0.589 | 0.564 | 0.519 | 0.497 | 0.48
1 µM, coculture fibroblast: C12385 | 0.8509 | 0.7482 | 0.667 | 0.596 | 0.528 | 0.466 | 0.42 | 0.374 | 0.345
1 µM, coculture fibroblast: H6013 | 0.774 | 0.683 | 0.639 | 0.633 | 0.553 | 0.538 | 0.504 | 0.485 | 0.458
1 µM, coculture fibroblast: H6019 | 0.792 | 0.681 | 0.628 | 0.561 | 0.505 | 0.467 | 0.414 | 0.361 | 0.326
1 µM, coculture fibroblast: H6076 | 0.801 | 0.8375 | 0.7567 | 0.691 | 0.649 | 0.62 | 0.578 | 0.551 | 0.538
1 µM, coculture fibroblast: H6231 | 0.821 | 0.774 | 0.683 | 0.637 | 0.582 | 0.555 | 0.522 | 0.482 | 0.461
1 µM, coculture fibroblast: HADF | 0.721 | 0.639 | 0.599 | 0.6008 | 0.494 | 0.465 | 0.428 | 0.394 | 0.378
1 µM, coculture fibroblast: HCFa | 0.825 | 0.748 | 0.731 | 0.704 | 0.615 | 0.587 | 0.541 | 0.518 | 0.507
1 µM, coculture fibroblast: HCPF | 0.8 | 0.819 | 0.747 | 0.635 | 0.64 | 0.604 | 0.557 | 0.526 | 0.507
1 µM, coculture fibroblast: HHSteC | 0.85 | 0.784 | 0.743 | 0.711 | 0.647 | 0.623 | 0.577 | 0.546 | 0.502
1 µM, coculture fibroblast: HMF | 0.807 | 0.844 | 0.744 | 0.64 | 0.626 | 0.593 | 0.548 | 0.508 | 0.472
1 µM, coculture fibroblast: HPFa | 0.9119 | 0.825 | 0.77 | 0.677 | 0.589 | 0.545 | 0.48002 | 0.4312 | 0.3899
1 µM, coculture fibroblast: HUF | 0.898 | 0.818 | 0.759 | 0.686 | 0.6345 | 0.6072 | 0.559 | 0.523 | 0.488
1 µM, coculture fibroblast: Hs5 | 0.8485 | 0.817 | 0.783 | 0.772 | 0.692 | 0.67 | 0.63 | 0.605 | 0.6
1 µM, coculture fibroblast: Hs27A | 0.726 | 0.637 | 0.601 | 0.617 | 0.484 | 0.463 | 0.41 | 0.366 | 0.336
1 µM, coculture fibroblast: Hs343T | 0.801 | 0.8694 | 0.7617 | 0.647 | 0.654 | 0.604 | 0.553 | 0.519 | 0.481
1 µM, coculture fibroblast: WS1 | 0.8228 | 0.721 | 0.65 | 0.568 | 0.498 | 0.458 | 0.41 | 0.371 | 0.343
10 µM, coculture fibroblast: C12385 | 0.852 | 0.802 | 0.752 | 0.706 | 0.661 | 0.622 | 0.584 | 0.541 | 0.518
10 µM, coculture fibroblast: H6013 | 0.737 | 0.651 | 0.609 | 0.588 | 0.516 | 0.501 | 0.463 | 0.442 | 0.416
10 µM, coculture fibroblast: H6019 | 0.8047 | 0.712 | 0.655 | 0.599 | 0.541 | 0.516 | 0.467 | 0.422 | 0.387
10 µM, coculture fibroblast: H6076 | 0.8059 | 0.814 | 0.76 | 0.714 | 0.677 | 0.656 | 0.618 | 0.588 | 0.585
10 µM, coculture fibroblast: H6231 | 0.843 | 0.794 | 0.744 | 0.685 | 0.643 | 0.614 | 0.577 | 0.549 | 0.528
10 µM, coculture fibroblast: HADF | 0.752 | 0.705 | 0.675 | 0.667 | 0.591 | 0.571 | 0.538 | 0.514 | 0.492
10 µM, coculture fibroblast: HCFa | 0.7872 | 0.712 | 0.655 | 0.655 | 0.546 | 0.511 | 0.457 | 0.4159 | 0.399
10 µM, coculture fibroblast: HCPF | 0.789 | 0.819 | 0.739 | 0.612 | 0.627 | 0.584 | 0.538 | 0.504 | 0.479
10 µM, coculture fibroblast: HHSteC | 0.8095 | 0.746 | 0.696 | 0.646 | 0.572 | 0.542 | 0.494 | 0.46 | 0.412
10 µM, coculture fibroblast: HMF | 0.796 | 0.846 | 0.787 | 0.722 | 0.724 | 0.698 | 0.674 | 0.645 | 0.616
10 µM, coculture fibroblast: HPFa | 0.928 | 0.884 | 0.892 | 0.818 | 0.77 | 0.755 | 0.706 | 0.663 | 0.627
10 µM, coculture fibroblast: HUF | 0.869 | 0.772 | 0.697 | 0.611 | 0.548 | 0.492 | 0.44 | 0.391 | 0.354
10 µM, coculture fibroblast: Hs5 | 0.829 | 0.85 | 0.7829 | 0.7395 | 0.67 | 0.647 | 0.62 | 0.578 | 0.58
10 µM, coculture fibroblast: Hs27A | 0.746 | 0.67 | 0.62 | 0.643 | 0.507 | 0.488 | 0.447 | 0.425 | 0.438
10 µM, coculture fibroblast: Hs343T | 0.8303 | 0.893 | 0.835 | 0.725 | 0.731 | 0.694 | 0.637 | 0.605 | 0.559
10 µM, coculture fibroblast: WS1 | 0.829 | 0.755 | 0.6948 | 0.615 | 0.549 | 0.492 | 0.438 | 0.388 | 0.355
100 µM, coculture fibroblast: C12385 | 0.853 | 0.7604 | 0.6929 | 0.625 | 0.552 | 0.497 | 0.454 | 0.399 | 0.366
100 µM, coculture fibroblast: H6013 | 0.78 | 0.702 | 0.656 | 0.644 | 0.56 | 0.545 | 0.503 | 0.473 | 0.445
100 µM, coculture fibroblast: H6019 | 0.8296 | 0.73531 | 0.66806 | 0.593 | 0.534 | 0.485 | 0.436 | 0.379 | 0.339
100 µM, coculture fibroblast: H6076 | 0.799 | 0.7916 | 0.712 | 0.633 | 0.595 | 0.566 | 0.527 | 0.498 | 0.492
100 µM, coculture fibroblast: H6231 | 0.811 | 0.805 | 0.695 | 0.586 | 0.5982 | 0.548 | 0.499 | 0.456 | 0.425
100 µM, coculture fibroblast: HADF | 0.761 | 0.693 | 0.664 | 0.671 | 0.575 | 0.551 | 0.506 | 0.476 | 0.452
100 µM, coculture fibroblast: HCFa | 0.794 | 0.695 | 0.63084 | 0.6134 | 0.508 | 0.465 | 0.414 | 0.366 | 0.339
100 µM, coculture fibroblast: HCPF | 0.795 | 0.809 | 0.717 | 0.587 | 0.604 | 0.563 | 0.51 | 0.477 | 0.448
100 µM, coculture fibroblast: HHSteC | 0.817 | 0.716 | 0.666 | 0.621 | 0.539 | 0.513 | 0.466 | 0.424 | 0.365
100 µM, coculture fibroblast: HMF | 0.798 | 0.841 | 0.751 | 0.643 | 0.648 | 0.609 | 0.558 | 0.523 | 0.48
100 µM, coculture fibroblast: HPFa | 0.9037 | 0.812 | 0.75387 | 0.668 | 0.594 | 0.546 | 0.486 | 0.436 | 0.393
100 µM, coculture fibroblast: HUF | 0.894 | 0.8 | 0.725 | 0.636 | 0.573 | 0.538 | 0.472 | 0.419 | 0.38
100 µM, coculture fibroblast: Hs5 | 0.8322 | 0.809 | 0.758 | 0.713 | 0.655 | 0.619 | 0.578 | 0.554 | 0.533
100 µM, coculture fibroblast: Hs27A | 0.726 | 0.639 | 0.585 | 0.606 | 0.486 | 0.469 | 0.439 | 0.417 | 0.425
100 µM, coculture fibroblast: Hs343T | 0.79 | 0.8472 | 0.738 | 0.613 | 0.613 | 0.562 | 0.503 | 0.473 | 0.418
100 µM, coculture fibroblast: WS1 | 0.826 | 0.716 | 0.641 | 0.566 | 0.507 | 0.462 | 0.412 | 0.3585 | 0.316

Values are relative to the signal before dosing, not to a vehicle control; the signal also falls without drug.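 Labels refer to human fibroblasts, largely primary: uterine (C12385, HUF), lung (H6013), bone (Hs27A), adrenal (HADF), skin (WS1), plus mammary HMF and breast cancer-associated Hs343T. Cancer lines are basal-like or mesenchymal-like triple-negative breast cancer. The paper counts as hits responses shifting over 3x the replicate standard deviation. The tissue of the other fibroblasts is not given here.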
